{
  "source": "patent US10525115B2",
  "about": "(Immatics Biotechnologies GmbH, priority 2014, dated 2020)",
  "test_system": "primary AML samples",
  "assay": "HLA class II ligandome analysis (LC-MS/MS) of primary AML samples",
  "parameters": "species or system human",
  "conditions": "AML patients n=12; for Number of positive AMLs: HLA class II ligandome; for rep. frequency in AMLs: source protein level, HLA class II",
  "data": [
    {"molecule": "GANAB glucosidase, alpha; neutral AB: HLA class II ligandome-derived tumor-associated antigen (LiTAA), source protein of the peptides listed under it (protein, UniProt Q14697 29-944, looked up) Neutral alpha-glucosidase AB: ITLAVDRSNFKTCEESSFCKRQRSIRPGLSPYRALLDSLQLGPDSLTVHLIHEVTKVLLVLELQGLQKNMTRFRIDELEPRRPRYRVPDVLVADPPIARLSVSGRDENSVELTMAEGPYKIILTARPFRLDLLEDRSLLLSVNARGLLEFEHQRAPRVSQGSKDPAEGDGAQPEETPRDGDKPEETQGKAEKDEPGAWEETFKTHSDSKPYGPMSVGLDFSLPGMEHVYGIPEHADNLRLKVTEGGEPYRLYNLDVFQYELYNPMALYGSVPVLLAHNPHRDLGIFWLNAAETWVDISSNTAGKTLFGKMMDYLQGSGETPQTDVRWMSETGIIDVFLLLGPSISDVFRQYASLTGTQALPPLFSLGYHQSRWNYRDEADVLEVDQGFDDHNLPCDVIWLDIEHADGKRYFTWDPSRFPQPRTMLERLASKRRKLVAIVDPHIKVDSGYRVHEELRNLGLYVKTRDGSDYEGWCWPGSAGYPDFTNPTMRAWWANMFSYDNYEGSAPNLFVWNDMNEPSVFNGPEVTMLKDAQHYGGWEHRDVHNIYGLYVHMATADGLRQRSGGMERPFVLARAFFAGSQRFGAVWTGDNTAEWDHLKISIPMCLSLGLVGLSFCGADVGGFFKNPEPELLVRWYQMGAYQPFFRAHAHLDTGRREPWLLPSQHNDIIRDALGQRYSLLPFWYTLLYQAHREGIPVMRPLWVQYPQDVTTFNIDDQYLLGDALLVHPVSDSGAHGVQVYLPGQGEVWYDIQSYQKHHGPQTLYLPVTLSSIPVFQRGGTIVPRWMRVRRSSECMKDDPITLFVALSPQGTAQGELFLDDGHTFNYQTRQEFLLRRFSFSGNTLVSSSADPEGHFETPIWIERVVIIGAGKPAAVVLQTKGSPESRLSFQHDPETSVLVLRKPGINVASDWSIHLR", "values": [
      {"measurement": "Number of positive AMLs", "result": 3},
      {"measurement": "rep. frequency in AMLs", "result": 25.0, "unit": "%"}
    ]},
    {"molecule": "HSP90B2P heat shock protein 90 kDa beta (Grp94), member 2, pseudogene: HLA class II ligandome-derived tumor-associated antigen (LiTAA), source protein of the peptides listed under it (protein, UniProt Q58FF3 1-399, looked up) Putative endoplasmin-like …: MAETIQEVEDEYKAFCKSFSKESDDPVACIHFTAEGEVTFKSILFVPTFVPRGLFDEYGSKKSDYIKLYVRCVFITDDFRDTMPKNLNFVKGVVDSGGLSLNVSCETLQQHKLLKVIRKKLVHKTLDMIKKIADEKYNDTFWKEFGTNIKLGVIEDHSNRTCLAKLLRFQSSHHPADITSLHQDVERMKEKQDKICLMAGGYEVIYLTEPVVEYCIQALPEFDGKRFQNVAKEGVKFDDSEKTKESHEAVEKEFEPLPNWVKDKAIKDKIEKAMVSQCLTESLCALVASQYGWSGNMERIMKAQAYQTGKGISTNYHASRKKTFEINPRHPLIRDMLRRIKEDEDDKTVLDLAVVEEPDEEPEETAEDKEQDKDKEMDVGTDEEKQETAKESTAEKDEL", "values": [
      {"measurement": "Number of positive AMLs", "result": 3},
      {"measurement": "rep. frequency in AMLs", "result": 25.0, "unit": "%"}
    ]},
    {"molecule": "LAIR1 leukocyte-associated immunoglobulin-like receptor 1: HLA class II ligandome-derived tumor-associated antigen (LiTAA), source protein of the peptides listed under it (protein, UniProt Q6GTX8 22-287, looked up) Leukocyte-associated …: QEEDLPRPSISAEPGTVIPLGSHVTFVCRGPVGVQTFRLERDSRSTYNDTEDVSQASPSESEARFRIDSVREGNAGLYRCIYYKPPKWSEQSDYLELLVKESSGGPDSPDTEPGSSAGPTQRPSDNSHNEHAPASQGLKAEHLYILIGVSVVFLFCLLLLVLFCLHRQNQIKQGPPRSKDEEQKPQQRPDLAVDVLERTADKATVNGLPEKDRETDTSALAAGSSQEVTYAQLDHWALTQRTARAVSPQSTKPMAESITYAAVARH", "values": [
      {"measurement": "Number of positive AMLs", "result": 3},
      {"measurement": "rep. frequency in AMLs", "result": 25.0, "unit": "%"}
    ]},
    {"molecule": "GALNT7 UDP-N-acetyl-alpha-D-galactosamine:polypeptide N-acetylgalactosaminyltransferase 7 (GalNAc-T7): HLA class II ligandome-derived tumor-associated antigen (LiTAA), source protein of the peptides … (protein, UniProt Q86SF2 1-657, looked up) N-acetylgalactosaminyltransfer …: MRLKIGFILRSLLVVGSFLGLVVLWSSLTPRPDDPSPLSRMREDRDVNDPMPNRGGNGLAPGEDRFKPVVPWPHVEGVEVDLESIRRINKAKNEQEHHAGGDSQKDIMQRQYLTFKPQTFTYHDPVLRPGILGNFEPKEPEPPGVVGGPGEKAKPLVLGPEFKQAIQASIKEFGFNMVASDMISLDRSVNDLRQEECKYWHYDENLLTSSVVIVFHNEGWSTLMRTVHSVIKRTPRKYLAEIVLIDDFSNKEHLKEKLDEYIKLWNGLVKVFRNERREGLIQARSIGAQKAKLGQVLIYLDAHCEVAVNWYAPLVAPISKDRTICTVPLIDVINGNTYEIIPQGGGDEDGYARGAWDWSMLWKRVPLTPQEKRLRKTKTEPYRSPAMAGGLFAIEREFFFELGLYDPGLQIWGGENFEISYKIWQCGGKLLFVPCSRVGHIYRLEGWQGNPPPIYVGSSPTLKNYVRVVEVWWDEYKDYFYASRPESQALPYGDISELKKFREDHNCKSFKWFMEEIAYDITSHYPLPPKNVDWGEIRGFETAYCIDSMGKTNGGFVELGPCHRMGGNQLFRINEANQLMQYDQCLTKGADGSKVMITHCNLNEFKEWQYFKNLHRFTHIPSGKCLDRSEVLHQVFISNCDSSKTTQKWEMNNIHSV", "values": [
      {"measurement": "Number of positive AMLs", "result": 3},
      {"measurement": "rep. frequency in AMLs", "result": 25.0, "unit": "%"}
    ]},
    {"molecule": "ARRDC1 arrestin domain containing 1: HLA class II ligandome-derived tumor-associated antigen (LiTAA), source protein of the peptides listed under it (protein, UniProt Q8N5I2 1-433, looked up) Arrestin domain-containing …: MGRVQLFEISLSHGRVVYSPGEPLAGTVRVRLGAPLPFRAIRVTCIGSCGVSNKANDTAWVVEEGYFNSSLSLADKGSLPAGEHSFPFQFLLPATAPTSFEGPFGKIVHQVRAAIHTPRFSKDHKCSLVFYILSPLNLNSIPDIEQPNVASATKKFSYKLVKTGSVVLTASTDLRGYVVGQALQLHADVENQSGKDTSPVVASLLQKVSYKAKRWIHDVRTIAEVEGAGVKAWRRAQWHEQILVPALPQSALPGCSLIHIDYYLQVSLKAPEATVTLPVFIGNIAVNHAPVSPRPGLGLPPGAPPLVVPSAPPQEEAEAEAAAGGPHFLDPVFLSTKSHSQRQPLLATLSSVPGAPEPCPQDGSPASHPLHPPLCISTGATVPYFAEGSGGPVPTTSTLILPPEYSSWGYPYEAPPSYEQSCGGVEPSLTPES", "values": [
      {"measurement": "Number of positive AMLs", "result": 3},
      {"measurement": "rep. frequency in AMLs", "result": 25.0, "unit": "%"}
    ]},
    {"molecule": "ERGIC1 endoplasmic reticulum-golgi intermediate compartment (ERGIC) 1: HLA class II ligandome-derived tumor-associated antigen (LiTAA), source protein of the peptides listed under it (protein, UniProt Q969X5 1-290, looked up) Endoplasmic reticulum-Golgi …: MPFDFRRFDIYRKVPKDLTQPTYTGAIISICCCLFILFLFLSELTGFITTEVVNELYVDDPDKDSGGKIDVSLNISLPNLHCELVGLDIQDEMGRHEVGHIDNSMKIPLNNGAGCRFEGQFSINKVPGNFHVSTHSATAQPQNPDMTHVIHKLSFGDTLQVQNIHGAFNALGGADRLTSNPLASHDYILKIVPTVYEDKSGKQRYSYQYTVANKEYVAYSHTGRIIPAIWFRYDLSPITVKYTERRQPLYRFITTICAIIGGTFTVAGILDSCIFTASEAWKKIQLGKMH", "values": [
      {"measurement": "Number of positive AMLs", "result": 3},
      {"measurement": "rep. frequency in AMLs", "result": 25.0, "unit": "%"}
    ]},
    {"molecule": "C19orf10 chromosome 19 open reading frame 10: HLA class II ligandome-derived tumor-associated antigen (LiTAA), source protein of the peptides listed under it (protein, UniProt Q969H8 32-173, looked up) Myeloid-derived growth factor: VSEPTTVAFDVRPGGVVHSFSHNVGPGDKYTCMFTYASQGGTNEQWQMSLGTSEDHQHFTCTIWRPQGKSYLYFTQFKAEVRGAEIEYAMAYSKAAFERESDVPLKTEEFEVTKTAVAHRPGAFKAELSKLVIVAKASRTEL", "values": [
      {"measurement": "Number of positive AMLs", "result": 5},
      {"measurement": "rep. frequency in AMLs", "result": 41.7, "unit": "%"}
    ]},
    {"molecule": "PLIN3 perilipin 3: HLA class II ligandome-derived tumor-associated antigen (LiTAA), source protein of the peptides listed under it (protein, UniProt O60664 2-434, looked up) Perilipin-3: SADGAEADGSTQVTVEEPVQQPSVVDRVASMPLISSTCDMVSAAYASTKESYPHIKTVCDAAEKGVRTLTAAAVSGAQPILSKLEPQIASASEYAHRGLDKLEENLPILQQPTEKVLADTKELVSSKVSGAQEMVSSAKDTVATQLSEAVDATRGAVQSGVDKTKSVVTGGVQSVMGSRLGQMVLSGVDTVLGKSEEWADNHLPLTDAELARIATSLDGFDVASVQQQRQEQSYFVRLGSLSERLRQHAYEHSLGKLRATKQRAQEALLQLSQVLSLMETVKQGVDQKLVEGQEKLHQMWLSWNQKQLQGPEKEPPKPEQVESRALTMFRDIAQQLQATCTSLGSSIQGLPTNVKDQVQQARRQVEDLQATFSSIHSFQDLSSSILAQSRERVASAREALDHMVEYVAQNTPVTWLVGPFAPGITEKAPEEKK", "values": [
      {"measurement": "Number of positive AMLs", "result": 4},
      {"measurement": "rep. frequency in AMLs", "result": 33.3, "unit": "%"}
    ]}
  ]
}
